Laboratory results as given in patent US9427415B2, “Methods and compositions for modifying sensorial perception” (The Procter & Gamble Company, priority 2014, dated 2016).
Values joined by “and” are separate entries in the source; they are usually repeats but may differ in a detail not shown here. Equal entries are not always repeated. At least one read-out could not be matched to a standard name with certainty.

Amino acid sequences for entries named in this document (tags omitted).
UniProt O75762, whole entry R3C/R58T/K186N: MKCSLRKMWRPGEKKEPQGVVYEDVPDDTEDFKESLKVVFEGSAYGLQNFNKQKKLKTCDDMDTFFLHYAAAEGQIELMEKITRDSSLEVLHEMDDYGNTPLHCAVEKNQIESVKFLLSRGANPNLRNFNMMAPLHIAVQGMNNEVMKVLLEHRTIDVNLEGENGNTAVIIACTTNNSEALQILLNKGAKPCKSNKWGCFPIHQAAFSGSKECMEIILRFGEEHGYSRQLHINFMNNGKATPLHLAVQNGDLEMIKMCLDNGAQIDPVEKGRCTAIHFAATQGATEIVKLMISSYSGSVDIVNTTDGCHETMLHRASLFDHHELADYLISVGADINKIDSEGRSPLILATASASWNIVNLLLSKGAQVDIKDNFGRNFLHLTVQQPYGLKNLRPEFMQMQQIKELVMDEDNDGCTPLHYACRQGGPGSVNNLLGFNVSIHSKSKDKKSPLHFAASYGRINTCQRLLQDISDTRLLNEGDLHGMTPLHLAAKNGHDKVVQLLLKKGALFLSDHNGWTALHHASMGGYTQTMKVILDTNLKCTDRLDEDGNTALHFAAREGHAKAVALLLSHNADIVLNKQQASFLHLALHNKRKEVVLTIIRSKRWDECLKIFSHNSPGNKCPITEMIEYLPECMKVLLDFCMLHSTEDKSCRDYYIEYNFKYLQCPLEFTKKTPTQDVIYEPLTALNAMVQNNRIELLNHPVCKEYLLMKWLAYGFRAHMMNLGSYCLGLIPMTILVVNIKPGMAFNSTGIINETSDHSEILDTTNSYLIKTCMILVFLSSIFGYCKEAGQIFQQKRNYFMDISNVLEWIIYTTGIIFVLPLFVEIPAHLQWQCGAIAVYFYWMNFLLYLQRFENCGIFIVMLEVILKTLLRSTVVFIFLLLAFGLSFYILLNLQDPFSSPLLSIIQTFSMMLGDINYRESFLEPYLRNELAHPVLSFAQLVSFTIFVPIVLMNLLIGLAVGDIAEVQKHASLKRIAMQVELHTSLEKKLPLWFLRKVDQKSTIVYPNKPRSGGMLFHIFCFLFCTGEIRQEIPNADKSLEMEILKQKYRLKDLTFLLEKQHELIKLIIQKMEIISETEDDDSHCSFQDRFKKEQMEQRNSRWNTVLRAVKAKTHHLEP

Target: T1, human TRPA1 (Homo sapiens, UniProt O75762, K186N/R3C/R58T)
T1 construct: expressed in transfected cells; pcDNA3 control cells
Assay: Intracellular calcium (Fluo-4, FLIPR) activation of TRPA1 cells by GRAS compounds;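 note: TRPA1-expressing cells, fluorescence read on a FLIPR Tetra (ex 488 nm, em 514 nm) every 2 s for 10 min after compound addition, baseline subtracted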
Format: cell-based
Settings: 1 mM, relative to AITC 30 μM

Row | Structure (SMILES) | A1 activation, % of agonist value (Table 1(c)) | A1 activation, % of agonist value (Table 1(e))
1 | CCCCCCCCCCC=CC=O [2-Tridecenal] | 119% and 85.6% | –
2 | S=C=NCCc1ccccc1 [Phenethyl isothiocyanate] | 92.32% | –
3 | COc1ccc(/C=C/C=O)cc1 [Trans-p-methoxy cinnamaldehyde] | – | 58.40%
